Consider 41 molecules from PubChem BioAssay AID2685 (National Center for Advancing Translational Sciences (NCATS), 2010).

The structures appear in SMILES notation. Some of the results follow. Shown are side measurements of this screen, not its main read-out; they come without a call. Compounds called inactive in the main read-out are mostly missing here. Words in brackets tell the shape of the fitted curve; partial curves, single points and poor fits give uncertain potencies.

The test in a line: qHTS Assay for Lipid Storage Modulators in Drosophila S3 Cells.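 As to cell number change: cells counted by Cell Tracker Red CMTPX staining in the red channel.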 Particulars: BODIPY lipid droplet fluorescence, 18-24 h; for cell number change: measured here: cell count max response, cells fed with added oleic acid. The essentials:
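Drosophila S3 cells got compounds at several concentrations plus oleic acid (400 uM solution). Laser-scanning cytometry with 488 nm excitation read lipid droplets at 500-530 nm and cells at 575-640 nm. Percent activity was relative to 20 uM Triacsin C.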

[1] abbreviates: measured here: lipid fluorescence (Fed channel) AC50, cells fed with added oleic acid.
The mark [2] stands for this setting: measured here: cell number channel AC50, cells fed with added oleic acid.

For the molecule `CCOC(=O)c1nn(-c2ccccc2C)c(=O)c2c(N)scc12`, the cell number change came to 18.4%. `O=C(NC1CCCC1)C1CCN(C(=O)c2ccccc2Cl)CC1`: the cell number change worked out at 13.4%. With `CCC(C(=O)NC1CCCC1)N(C(=O)Cn1nnc(-c2ccc(C)o2)n1)c1ccc(F)cc1` (stereo unspecified), the cell number change was 18.1%. Also, the half-maximal activity concentration (AC50) under setting [1] was 6.51 µM [falling, single point]. Take `CCc1ccc(OCC(=O)N(Cc2ccccc2)C2CCS(=O)(=O)C2)cc1` (stereo unspecified): the cell number change was 6.25%. In the case of `Cc1ccc(/C=C2\SC(N3CCN(C(c4ccccc4)c4ccccc4)CC3)=NC2=O)o1`, the AC50 is, setting by setting: under setting [2], 6.51 µM [rising, partial curve, poor fit]; under setting [1], 6.51 µM [rising, partial curve, poor fit]. Take `COc1ccc(CCNS(=O)(=O)c2cn(C)c(=O)n(C)c2=O)cc1OC`: the concentration at half-maximal activity (AC50) under setting [1] was 0.092 µM [falling, full curve]. Consider `O=[N+]([O-])c1ccc2c(c1)ncn2-c1ccccc1`, for which the cell number change was found to be 9.69%. Moreover, the half-maximal activity concentration (AC50) under setting [1] was 29.1 µM [rising, single point]. In the case of `CN1CCc2c(sc(NC(=O)c3cc4cc([N+](=O)[O-])ccc4s3)c2C(N)=O)C1`, the cell number change was -76.3%. Further, under setting [2], the half-maximal activity concentration (AC50) was 10.3 µM [falling, partial curve]. For the same molecule, the AC50 under setting [1] was 9.2 µM [falling, partial curve]. Take `Brc1ccc(OCc2cn3ccccc3n2)cc1`: the cell number change was -45.9%. For the molecule `COc1ccc2oc(C(=O)Nc3ccc(N4CCOCC4)cc3)c(C)c2c1`, the cell number change was determined as 19.4%. Also, under setting [1], the AC50 was 29.1 µM [rising, single point]. `Cc1ccc(C(=O)N2CCN(c3ncccn3)CC2)cc1S(=O)(=O)N1CCCCC1`: the cell number change was determined as 21.7%. Besides, the concentration at half-maximal activity (AC50) under setting [1] was 0.146 µM [falling, full curve, poor fit]. Regarding `O=C(NC(=S)Nc1cccc(NC(=O)c2ccc(Cl)cc2Cl)c1)c1cccs1`, the cell number change turned out to be 1.58%. In addition, the AC50 under setting [1] is 25.9 µM [rising, partial curve, poor fit]. Consider `COc1ccc(CNCC(O)COCc2cccs2)cc1` (stereo unspecified), for which the cell number change was found to be 5.42%. Besides, under setting [1], the AC50 was 16.4 µM [falling, single point]. On to `CCOc1ccc(CCNC(=O)C2CCCN(S(C)(=O)=O)C2)cc1OCC` (stereo unspecified), for which the cell number change was 9.15%. For the same molecule, the AC50 under setting [1] is 5.8 µM [rising, single point]. `CCc1ccccc1NC(=O)CN(C)C(=O)COC(=O)c1ccccc1Cl`: the cell number change amounted to 30.5%. Further, the AC50 under setting [2] was 0.116 µM [falling, full curve, poor fit]. The concentration at half-maximal activity (AC50) under setting [1] is 0.146 µM [falling, full curve, poor fit]. Turning to `O=C(CCNC(=O)c1ccc([N+](=O)[O-])cc1)Nc1cccc(S(=O)(=O)N2CCOCC2)c1`, the cell number change is 0.251%. For the same molecule, the concentration at half-maximal activity (AC50) under setting [1] was 7.31 µM [rising, partial curve]. Regarding `COc1ccc(NC(=O)NC2CCN(C(C)C)CC2)c(OC)c1`, the cell number change is 15.1%. Take `CCN1CCN(C(=S)Nc2ccsc2C(=O)OC)CC1`: the cell number change is -26.1%. For the molecule `Oc1ccc(/C=N/N2CCN(Cc3ccccc3)CC2)cc1`, the cell number change was determined as 7.66%. Moreover, under setting [1], the half-maximal activity concentration (AC50) was 29.1 µM [rising, single point]. Take `COc1cc(OC)c(OC)cc1CNC(=O)c1cc(S(=O)(=O)N2CCOCC2)ccc1F`: the cell number change was -31.5%. Also, the AC50 under setting [1] is 29.1 µM [falling, single point]. Turning to `O=C(CN1CCCCC1)N1CCCc2c1c(=O)oc1ccc(OCc3ccccc3)cc21`, the cell number change is -30.6%. For the same molecule, under setting [2], the AC50 was 23.1 µM [falling, single point]. The half-maximal activity concentration (AC50) under setting [1] was 29.1 µM [falling, single point]. Turning to `COC(=O)c1cc(C(=O)Nc2ccc(S(N)(=O)=O)cc2)cc([N+](=O)[O-])c1`, the cell number change amounted to 15%. For `CC(NC(=O)c1ccc2c(c1)OCO2)C(c1cccs1)N1CCN(c2ccccc2)CC1` (stereo unspecified), the cell number change stood at 9.71%. Also, the concentration at half-maximal activity (AC50) under setting [1] is 29.1 µM [rising, single point].

As to `Cc1ccc(CNC(=O)c2nnc(CS(=O)(=O)c3ccccc3)o2)cc1`, the cell number change came out at 20.2%.

In the case of `COC(=O)CCc1c(C)[nH]c(=S)[nH]c1=O`, the cell number change is 31.8%. Further, under setting [2], the AC50 is 0.00411 µM [rising, full curve, poor fit]. Regarding `CCOC(=O)C1CCN(C(=O)Nc2c(-c3ccccc3)noc2C)CC1`, the cell number change is -27.2%. In addition, under setting [1], the AC50 was 7.31 µM [falling, partial curve]. Take `CCCN(Cc1nnc(-c2ccccc2Cl)o1)C(=O)c1cc(S(=O)(=O)N2CCOCC2)ccc1F`: the cell number change was -50%. Further, the half-maximal activity concentration (AC50) under setting [2] is 29.1 µM [falling, single point]. Moreover, the AC50 under setting [1] was 0.651 µM [falling, partial curve, poor fit]. Turning to `CSCCC(N=C(NS(=O)(=O)c1ccccc1)c1ccccc1)C(=O)O` (stereo unspecified), the cell number change is -38.8%. Further, the half-maximal activity concentration (AC50) under setting [2] was 0.517 µM [falling, full curve].

`CCN1CCc2nc(NC(=O)c3ccccc3)sc2C1`: the cell number change was 12.6%.

For the molecule `O=C(/C=C1\SC(=O)NC1=O)Nc1ccc(F)cc1`, the cell number change was determined as 18.6%.

On to `CC(C)(C)NC(=O)C1CCC(C)(C(=O)O)C1(C)C` (stereo unspecified), for which the cell number change is -205%. The concentration at half-maximal activity (AC50) under setting [2] was 20.6 µM [falling, partial curve]. Further, the concentration at half-maximal activity (AC50) under setting [1] is 16.4 µM [falling, partial curve]. `COc1ccc(CCNC(=O)COC(=O)c2cc(S(=O)(=O)N3CCCC3)ccc2O)cc1`: the cell number change turned out to be 31.2%. Besides, the AC50 under setting [2] is 32.6 µM [rising, single point]. The AC50 under setting [1] is 18.4 µM [rising, partial curve, poor fit]. Consider `CCN(CC)C(=O)COc1ccc(S(=O)(=O)N2CCOCC2)cc1`, for which the cell number change was 51.7%. Further, the AC50 under setting [2] was 29.1 µM [rising, single point]. Further, the AC50 under setting [1] is 29.1 µM [rising, single point].

`COc1ccc(F)cc1C(=O)C1CCCN(Cc2c(C)n(C)n(-c3ccccc3)c2=O)C1` (stereo unspecified): the cell number change was 34.8%. Further, the half-maximal activity concentration (AC50) under setting [2] was 20.6 µM [rising, partial curve, poor fit]. Take `Cc1oc(-c2ccccc2)nc1CC(=O)O`: the cell number change was -26.1%. Further, the AC50 under setting [1] was 0.461 µM [falling, partial curve]. On to `CCNC(=S)NS(=O)(=O)c1ccc(Cl)cc1`, for which the cell number change worked out at 61.9%. Besides, the AC50 under setting [2] is 29.1 µM [rising, single point]. Turning to `O=C1NC(=O)C(Cc2c[nH]c3ccccc23)N1` (stereo unspecified), the cell number change was -10.5%. Turning to `CC(=O)N1CCN(C(=O)c2cc3ccccc3o2)CC1`, the cell number change was -0.451%. Besides, the concentration at half-maximal activity (AC50) under setting [1] was 29.1 µM [rising, partial curve].

`N#CCCn1cc(/C=C2\NC(=S)N(c3ccccc3)C2=O)c(-c2ccc(-c3ccccc3)cc2)n1`: the cell number change is -4%. The same measure, in the same setting: under `COCCn1c(CN2CCc3ccccc3C2)nc2c1c(=O)n(C)c(=O)n2C` stands -26.4%.

In the case of `CC(C)C1COC(c2cccc3ccccc23)=N1` (stereo unspecified), the cell number change was -35.8%. Under setting [2], the AC50 is 29.1 µM [falling, single point]. Further, under setting [1], the concentration at half-maximal activity (AC50) was 16.4 µM [rising, single point].

Broadly, the AC50 is the concentration at which the activity in the assay is half-maximal. Low readings indicate greater potency, high ones weaker potency.
